This series can be described thus: Acute toxicity LD50 in rats, i.v. As to conditions: rat, in vivo, iv; Ratte (i.v.); read-out: LD₅₀. The source says:
Die hohe antiarrhythmische Wirksamkeit ist nicht begleitet von einer signifikanten Toxizitätssteigerung im Vergleich zu Propafenon. Dies ergibt sich aus einem Vergleich der LD₅₀-Werte bei Ratten und Mäusen, die in Tabelle II zusammengefaßt sind.

As to `CCCNCC(O)COc1ccccc1C(=O)CCc1ccccc1` (stereo not shown) [A, Propafenon, reference compound], the LD50 was found to be 17 mg/kg.

Values taken from patent publication EP0297435A2, “Aminopropanol derivatives of 3-(3'-hydroxyphenyl)-1-propanone, process for their preparation and medicines containing these compounds” (Helopharm W. Petrik GmbH & Co.KG., priority 1987, dated 1989).
